# In the supplement of paper PMC4635364:
# Where a name gives a salt, the structure may show the parent alone. The list shows a part of the results. Repeats in this data set agree poorly, so a single value says little.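 Cells: ReNCell VM human fetal ventral-midbrain neural progenitors, differentiated mitogen-free. Blinded raters compared doublecortin-stained (early neurons) or tyrosine hydroxylase-stained (dopaminergic neurons) images with untreated wells, where 0 means no change. After repeats and both raters were averaged, compounds scoring 2 or above became hits for retesting.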
# Experiments:
# ReNCell VM [1] = assay: neuronal differentiation score (DCX+ cell fraction vs untreated, manual image score) (score (-3 to 3)); higher = more neuronal differentiation; details: 2 uM, 2 weeks
# ReNCell VM [2] = assay: dopaminergic neuron differentiation score (TH+ cell fraction vs untreated, manual image score) (score (0 to 3)); higher = more TH+ dopaminergic neuron differentiation; details: 2 uM, 4 weeks, BDNF 10 ng/ml + GDNF 10 ng/ml
compound,measurement,setting,value
NCCCNCCSP(=O)(O)O,neuronal differentiation score,ReNCell VM [1]; library: Spectrum,inactive: 0
same,dopaminergic neuron differentiation score,ReNCell VM [2]; library: Spectrum,inactive: 0
CCC12C=CCN3CC[C@@]4(c5ccc(OC)cc5N(C)[C@H]4[C@@](O)(C(=O)OC)[C@@H]1OC(C)=O)[C@@H]32 (some centres not stated) [vindoline],neuronal differentiation score,ReNCell VM [1]; library: Natural,inactive: 0
same,dopaminergic neuron differentiation score,ReNCell VM [2]; library: Natural,inactive: 0
CNC(C)(C)Cc1ccccc1 [Mephentermine hemisulfate],neuronal differentiation score,ReNCell VM [1]; library: Prestwick,inactive: 0
same,dopaminergic neuron differentiation score,ReNCell VM [2]; library: Prestwick,inactive: 0
NC(N)=Nc1ccc2[nH]c3c(c2c1)C[C@@]1(O)[C@H]2Cc4ccc(O)c5c4[C@@]1(CCN2CC1CC1)[C@H]3O5 [Guanidinyl-naltrindole di-trifluoroacetate],neuronal differentiation score,ReNCell VM [1]; library: LOPAC,inactive: 0
same,dopaminergic neuron differentiation score,ReNCell VM [2]; library: LOPAC,inactive: 0
NNC(N)=O [Semicarbazide hydrochloride],neuronal differentiation score,ReNCell VM [1]; library: LOPAC,inactive: 0
same,dopaminergic neuron differentiation score,ReNCell VM [2]; library: LOPAC,inactive: 0
CC[C@@H](CO)NC(=O)[C@@H]1C=C2c3cccc4[nH]cc(c34)C[C@H]2N(C)C1 [Methylergonovine maleate],neuronal differentiation score,ReNCell VM [1]; library: LOPAC,inactive: 0
same,dopaminergic neuron differentiation score,ReNCell VM [2]; library: LOPAC,inactive: 0
O=P1(N(CCCl)CCCl)NCCCO1 (configuration not stated),neuronal differentiation score,ReNCell VM [1]; library: Spectrum,inactive: 1
same,dopaminergic neuron differentiation score,ReNCell VM [2]; library: Spectrum,inactive: 0
CCCN(CCC)[C@@H]1CCc2cccc(O)c2C1 [R-(+)-8-Hydroxy-DPAT hydrobromide],neuronal differentiation score,ReNCell VM [1]; library: LOPAC,inactive: 0
same,dopaminergic neuron differentiation score,ReNCell VM [2]; library: LOPAC,inactive: 0
C[N+]12CC[C@@]34c5ccccc5N5C(=O)C[C@@H]6OCC=C(C1)[C@H](C[C@@H]32)[C@@H]6[C@H]54 (some centres not stated),neuronal differentiation score,ReNCell VM [1]; library: Spectrum,inactive: 0
same,dopaminergic neuron differentiation score,ReNCell VM [2]; library: Spectrum,inactive: 0
O=c1[nH]c2ccccc2n1C1CCN(CCCC(c2ccc(F)cc2)c2ccc(F)cc2)CC1,neuronal differentiation score,ReNCell VM [1]; library: Spectrum,inactive: 0
same,dopaminergic neuron differentiation score,ReNCell VM [2]; library: Spectrum,inactive: 0
COC1=CC=C2[C@H]3Cc4ccc(OC)c5c4[C@@]2(CCN3C)[C@H]1O5 [Thebaine HCl],neuronal differentiation score,ReNCell VM [1]; library: Phytochemical,inactive: 0
same,dopaminergic neuron differentiation score,ReNCell VM [2]; library: Phytochemical,inactive: 0

# Quoted from the results shown for reference:
compound,measurement,setting,value
CNC(C)(C)Cc1ccccc1 [Mephentermine hemisulfate],dopaminergic neuron differentiation score,ReNCell VM [2]; library: Prestwick,inactive: 0
NC(N)=Nc1ccc2[nH]c3c(c2c1)C[C@@]1(O)[C@H]2Cc4ccc(O)c5c4[C@@]1(CCN2CC1CC1)[C@H]3O5 [Guanidinyl-naltrindole di-trifluoroacetate],neuronal differentiation score,ReNCell VM [1]; library: LOPAC,inactive: 0
